Source: the supplement of paper PMC12009310
Structures can show the parent of a compound that is named as a salt. ± gives the standard deviation of the averaged measurements. This is one part of the list. Plates or batches differ in their baseline, so values are only roughly comparable.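 The cells are a mouse kidney inner medullary collecting duct line, silenced either for the ciliary gene Rpgrip1l or with a non-targeting control siRNA.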

The molecules below were run on mIMCD3 (assay: robust z score of cilia incidence (% cells with single cilium) vs plate controls; higher = more ciliated cells). Conditions: 10 µM; 48 h; siRNA: siScr.

| SMILES | robust z score of cilia incidence |
| --- | --- |
| Cc1cccc(C)c1NC(=O)C[N+](C)(C)C | -0.41 ± 2.2 |
| c1cc(CN2CCCCC2)cc(OCCCNc2nc3ccccc3s2)c1 [Zolantidine dimaleate] | -14.2 ± 1.9 |
| COc1cccc2c1C(=O)c1c(O)c3c(c(O)c1C2=O)C[C@@](O)(C(=O)CO)C[C@@H]3O[C@H]1C[C@H](N)[C@H](O)[C@H](C)O1 [Doxorubicin hydrochloride] | -35.9 ± 17 |
| Cc1ccc(C(=O)Cn2c3c(sc2=N)CCCC3)cc1 [Pifithrin- α hydrobromide] | -2.07 ± 2.1 |
| Nc1[nH]nc2nc3ccccc3nc12 | 5.91 ± 4.6 |
| O=C(c1ccc(OCCN2CCCCC2)cc1)c1c(-c2ccc(O)cc2)sc2cc(O)ccc12 [Raloxifene hydrochloride] | -48.1 ± 47 |
| CC(=O)N1CCN(c2ccc(OCC3COC(Cn4ccnc4)(c4ccc(Cl)cc4Cl)O3)cc2)CC1 (stereo unspecified) [Ketoconazole] | -72.7 ± 11 |
| O=C1CC2(CCCC2)CC(=O)N1CCCCN1CCN(c2ncccn2)CC1 [Buspirone hydrochloride] | -3.33 ± 3.4 |
| CC[C@H](C)C(=O)O[C@H]1C[C@@H](C)C=C2C=C[C@H](C)[C@H](CC[C@@H]3C[C@@H](O)CC(=O)O3)[C@H]21 [Lovastatin] | -37.9 ± 15 |
| O=C(O)c1cc(O)c2ccc(Cl)cc2n1 [7-Chlorokynurenic acid] | 1.57 ± 2.1 |
| CN1CCC(=C2c3ccccc3C=Cc3ccccc32)CC1 [Cyproheptadine hydrochloride] | -10 ± 5.1 |
| C[C@](N)(Cc1ccc(O)c(O)c1)C(=O)O [L-(-)- α-Methyldopa] | 1.2 ± 0.56 |
| CC(C)NC[C@H](O)COc1ccc(CC(N)=O)cc1 [S-(-)-Atenolol] | 0.908 ± 3.9 |
| CN(C)CCCCSC(=N)N | 0.878 ± 1.2 |
| COc1ccc(-c2ccc(=N)n(CCCC(=O)O)n2)cc1 | 1.63 ± 0.38 |
| CCCCC[C@H](O)/C=C/[C@H]1[C@H](O)CC(=O)[C@@H]1CCCCCCC(=O)O [Alprostadil] | -2.21 ± 4.6 |
| c1ccc(COCCCc2c[nH]cn2)cc1 [Proxyfan Oxalate] | -0.884 ± 0.26 |
| Cc1ccc(O)c(N=Nc2ccccc2)n1 | -0.275 ± 1.9 |
| CCN1CCC[C@H]1CNC(=O)c1c(O)c(Cl)cc(Cl)c1OC [Raclopride] | -5.37 ± 6.3 |
| COc1ccc(Nc2ncnc3ccc(OC)cc23)cc1 [MPMQ hydrochloride] | -7.7 ± 7.4 |
| c1ccc(-c2[nH]ncc2-c2ccnc3ccccc23)nc1 | -0.783 ± 2.5 |
| C[C@@H](CN1CC(=O)NC(=O)C1)N1CC(=O)NC(=O)C1 [Dexrazoxane hydrochloride] | -3.85 ± 2.8 |
| CCCCN1CCCC1CNC(=O)c1cc(C#N)c2ccccc2c1OC (stereo unspecified) [Nafadotride] | -11.8 ± 15 |

What follows are molecules tested on mIMCD3 (assay: robust z score of cilia incidence (% cells with single cilium) vs plate controls; higher = more ciliated cells (rescue of cilia loss)). Conditions: 10 µM; 48 h; siRNA: siRpgrip1l.

| SMILES | robust z score of cilia incidence |
| --- | --- |
| O=C(c1ccc(Nc2nccc(-c3cc4ccccc4s3)n2)cc1)N1CCC(N2CCCC2)CC1 | -57.3 ± 7.8 |
| O=C(O)C1=CCCN(CCON=C(c2ccccc2)c2ccccc2)C1 | -12.1 ± 3.2 |
| CCCC[C@@H](C=O)NC(=O)[C@H](CC(C)C)NC(=O)OCc1ccccc1 [Calpeptin] | -9.23 ± 6.3 |
| O=C1Nc2ccc(I)cc2/C1=C/c1cc(Br)c(O)c(Br)c1 | -31.4 ± 16 |
| Cc1nc2sccn2c(=O)c1CCN1CCC(=C(c2ccccc2)c2ccc(F)cc2)CC1 | -50.8 ± 17 |
| Cc1cc(I)ccc1Nc1c(C(=O)NOCC2CC2)cc(F)c(F)c1F | -57.6 ± 8.6 |
| COc1ccc(NS(=O)(=O)c2ccc(I)cc2)cc1N1CCN(C)CC1 | -31.2 ± 26 |
| CNC(=O)[C@H]1O[C@@H](n2cnc3c(NCc4cccc(I)c4)nc(Cl)nc32)[C@H](O)[C@@H]1O | -23.9 ± 0.4 |
| C1CCC2(CC1)CCNCC2 [4,4-Pentamethylenepiperidine hydrochloride] | -11 ± 7.8 |
| OC1CCC(Nc2nc(-c3ccccc3)nc3[nH]ccc23)CC1 (stereo unspecified) | -5.83 ± 0.87 |
| CC[C@H](CO)Nc1nc(Nc2cccc(-c3ccccn3)c2)c2ncn(C(C)C)c2n1 [(R)-DRF053 dihydrochloride] | -4.42 ± 0.56 |
| CNCCCC12CCC(c3ccccc31)c1ccccc12 [Maprotiline hydrochloride] | -25.6 ± 6.8 |
| O=C(O)c1cc(=O)c2c(Cl)cc(Cl)cc2[nH]1 [5,7-Dichlorokynurenic acid] | -8.08 ± 7.8 |
| CCC(NC(C)C)C(O)c1ccc(O)c2[nH]c(=O)ccc12 (stereo unspecified) [Procaterol hydrochloride] | -15 ± 0.78 |
| COCC(=O)O[C@]1(CCN(C)CCCc2nc3ccccc3[nH]2)CCc2cc(F)ccc2[C@@H]1C(C)C [Mibefradil dihydrochloride] | -58.9 ± 5.2 |
| Cc1cccc(C)c1NC(=O)C[N+](C)(C)C | -10.5 ± 1.7 |
| c1cc(CN2CCCCC2)cc(OCCCNc2nc3ccccc3s2)c1 [Zolantidine dimaleate] | -34.8 ± 4.1 |
| COc1cccc2c1C(=O)c1c(O)c3c(c(O)c1C2=O)C[C@@](O)(C(=O)CO)C[C@@H]3O[C@H]1C[C@H](N)[C@H](O)[C@H](C)O1 [Doxorubicin hydrochloride] | -58.6 ± 4.7 |
| Cc1ccc(C(=O)Cn2c3c(sc2=N)CCCC3)cc1 [Pifithrin- α hydrobromide] | -12.4 ± 1.8 |

| SMILES | robust z score of cilia incidence |
| --- | --- |
| Nc1[nH]nc2nc3ccccc3nc12 | -22.5 ± 21 |
| O=C(c1ccc(OCCN2CCCCC2)cc1)c1c(-c2ccc(O)cc2)sc2cc(O)ccc12 [Raloxifene hydrochloride] | -27.5 ± 7.4 |
| CC(=O)N1CCN(c2ccc(OCC3COC(Cn4ccnc4)(c4ccc(Cl)cc4Cl)O3)cc2)CC1 (stereo unspecified) [Ketoconazole] | -41 ± 4.4 |
| O=C1CC2(CCCC2)CC(=O)N1CCCCN1CCN(c2ncccn2)CC1 [Buspirone hydrochloride] | -12.7 ± 4.3 |
| CC[C@H](C)C(=O)O[C@H]1C[C@@H](C)C=C2C=C[C@H](C)[C@H](CC[C@@H]3C[C@@H](O)CC(=O)O3)[C@H]21 [Lovastatin] | -499 ± 330 |
| O=C(O)c1cc(O)c2ccc(Cl)cc2n1 [7-Chlorokynurenic acid] | -7.13 ± 6.8 |
| CN1CCC(=C2c3ccccc3C=Cc3ccccc32)CC1 [Cyproheptadine hydrochloride] | -15.1 ± 5 |
| C[C@](N)(Cc1ccc(O)c(O)c1)C(=O)O [L-(-)- α-Methyldopa] | -4.77 ± 8.2 |
| CC(C)NC[C@H](O)COc1ccc(CC(N)=O)cc1 [S-(-)-Atenolol] | -5.61 ± 2.6 |
| CN(C)CCCCSC(=N)N | -8 ± 6.4 |
| COc1ccc(-c2ccc(=N)n(CCCC(=O)O)n2)cc1 | -6.49 ± 4.2 |
| CCCCC[C@H](O)/C=C/[C@H]1[C@H](O)CC(=O)[C@@H]1CCCCCCC(=O)O [Alprostadil] | -11 ± 0.56 |
| c1ccc(COCCCc2c[nH]cn2)cc1 [Proxyfan Oxalate] | -2.57 |
| Cc1ccc(O)c(N=Nc2ccccc2)n1 | -13.5 ± 1.3 |
| CCN1CCC[C@H]1CNC(=O)c1c(O)c(Cl)cc(Cl)c1OC [Raclopride] | -30.6 ± 29 |
| COc1ccc(Nc2ncnc3ccc(OC)cc23)cc1 [MPMQ hydrochloride] | -16.6 ± 10 |
| c1ccc(-c2[nH]ncc2-c2ccnc3ccccc23)nc1 | -9.73 ± 4 |
| C[C@@H](CN1CC(=O)NC(=O)C1)N1CC(=O)NC(=O)C1 [Dexrazoxane hydrochloride] | -8.96 ± 2.6 |
| CCCCN1CCCC1CNC(=O)c1cc(C#N)c2ccccc2c1OC (stereo unspecified) [Nafadotride] | -12.8 ± 0.43 |
